Assay results reported in patent US4178442A, “Novel cinnamoyles piperazines and homopiperazines, the method of preparing them and their application in therapeutics” (Delalande S. A., priority 1977, dated 1979).

Tested on: anaesthetized dog
Assay: Activity on the peripheral circulation, anaesthetized dog
Type: in vivo
Settings: 5 mg/kg i.v. slow perfusion
Description: The activity on the peripheral circulation was studied on an anaesthetized dog (sodium pentobarbital 30 mg/kg/i.v.). The femoral artery flow was measured by means of an electromagnetic or ultrasonic perivascular Doppler effect probe.

C(=C\c1ccccc1)/CN1CCN(C(c2ccccc2)c2ccccc2)CC1 [Cinnarizine, cinnarizine, reference compound]
Average arterial pressure: in time: 15 min
